Measured values published in patent publication US20170196893A1, “TREATMENT OF INFLAMMATORY DEMYELINATING DISEASE WITH AGONISTS OF FARNESOID X RECEPTOR” (The Board of Trustees of the Leland Stanford Junior …, priority 2016, published 2017).
At least one structure is not confirmed: it was looked up by name or label, or the drawing left a doubt.

Tested on: experimental autoimmune encephalomyelitis (EAE)
Assay: Adoptive transfer EAE with cells of treated donor mice
Assay type: in vivo, mouse
Conditions: donor mice treated eleven days, cells restimulated 72 h with MOG35-55 and rIL-12; vs vehicle treated donors (FIG. 4D)
Method: Mice and EAE Induction. C57BL/6J and FXRKO (B6.129x1(FVB)-Nr1h4tm1Gonz/J, #0007214) female mice were purchased from the Jackson Laboratory. Animal experiments were approved by, and performed in compliance with, the National Institute of Health guidelines of the Institutional Animal Care and Use Committee at Stanford University. For induction of active and adoptive transfer of EAE, 8- to 12-week-old female mice were immunized subcutaneously with 100 μg of MOG35-55 emulsified in complete Freund's adjuvant (CFA), consisting of incomplete Freund's Adjuvant and 0.4 mg of heat inactivated Mycobacterium tuberculosis, strain H37 RA (Difco Laboratories). On days 0 and 2, mice were also injected intravenously or intraperitoneally with 400 ng pertussis toxin in 0.2 ml 1×PBS. Adoptive transfer requires harvesting lymph nodes and spleens ten days after immunization. Combined lymphocytes and splenocytes are cultured in bulk, at 5×10^7 cells/ml for seventy-two hours in the presence of MOG35-55 (20 μg/ml) and rIL-12 (10 ng/ml, R&D systems). Cells are harvested and washed twice before transfer of 3×10^7 cells in 0.2 ml 1×PBS into naive 6-7 week old female mice, intraperitoneally. Clinical disease was monitored daily using the following scoring system: 0, no disease; 1, limp tail; 2, hind limb weakness; 3, hind limb paralysis; 4, hind limb and forelimb paralysis; 5, death.

## CC[C@H]1[C@@H](O)[C@@H]2[C@H](CC[C@]3(C)[C@@H]([C@H](C)CCC(=O)O)CC[C@@H]23)[C@@]2(C)CC[C@@H](O)C[C@@H]12 [6-ECDCA, 6α-Ethyl-chenodeoxycholic acid]
  Clinical EAE scores of naive recipient mice: significantly less severe disease
